From patent US11331312B2, “Treatment of H-Ras-driven tumors” (MEMORIAL SLOAN-KETTERING CANCER CENTER, priority 2014, dated 2022)
At least one structure is not confirmed: it was looked up by name or label, or the drawing left a doubt.

Test system: Hras-G12V+/+/p53-null thyroid cancers
Assay: Extended (24-week) tipifarnib treatment of mice: tumor growth, survival, resistance
Assay type: in vivo, mouse
Conditions: 80 mg/kg BID, Kaplan-Meier

Q: With Cn1cncc1[C@@](N)(c1ccc(Cl)cc1)c1ccc2c(c1)c(-c1cccc(Cl)c1)cc(=O)n2C [tipifarnib] as the compound, how does the survival read?
A: survival advantage
